The source of these data is PMC6529632, “Robust Stoichiometry of FliW-CsrA Governs Flagellin Homeostasis and Cytoplasmic Organization in Bacillus subtilis” (mBio, 2019).

These are yes or no findings as the source states them, for the method shown. Some results given as binding are weak or reduced against the parent protein; the word gives no strength. Where a sequence is shown, tags or fusion partners need not be part of it.

This assay deals with T1, CsrA^N55D-strep (monomer co-expressed with CsrA^WT-His6) (Bacillus subtilis) (UniProt P33911).
T1 sequence: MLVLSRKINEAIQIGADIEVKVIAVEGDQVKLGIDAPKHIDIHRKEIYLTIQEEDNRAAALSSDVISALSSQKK
As to the kind of experiment: sequential affinity co-purification with SDS-PAGE; both chains co-expressed from one vector in E. coli; Ni-NTA by the His6 tag, then Strep-Tactin by the Strep tag, then size exclusion; Coomassie-stained denaturing gel, densitometry. In general terms: Size exclusion chromatography separates by hydrodynamic size, large species first.

B1: CsrA^WT-His6 (monomer co-expressed with CsrA^N55D-strep) (natural protein, Bacillus subtilis, UniProt P33911 1-74, looked up)
chain: MLVLSRKINEAIQIGADIEVKVIAVEGDQVKLGIDAPKHIDIHRKEIYLTIQEENNRAAALSSDVISALSSQKK
notes: CsrA of Bacillus subtilis, wild type, amplified from pCSB9; Same chain as in m1 and m3; Written as a single chain for the pair row of the heterodimer; also called CsrA-His6; source: Rosetta-gami E. coli, co-expressed with CsrA^N55D-strep from dual-expression vector pRO76
B1: the binding result is listed as “binds”.
